Measurements as given in the supplement of paper PMC12819154, “High-throughput peptide-centric local stability assay extends protein–ligand identification to membrane proteins, tissues and bacteria” (Nature Structural & Molecular Biology, 2025).
The other results are listed elsewhere or left out. Small differences around the control level are noise.

Protein sequences, listed by entry. Tags and fused reporters are not part of them. Lines headed by an entry give the natural chain unless they say otherwise; changes in a name come on top.
UniProt Q9CQ65: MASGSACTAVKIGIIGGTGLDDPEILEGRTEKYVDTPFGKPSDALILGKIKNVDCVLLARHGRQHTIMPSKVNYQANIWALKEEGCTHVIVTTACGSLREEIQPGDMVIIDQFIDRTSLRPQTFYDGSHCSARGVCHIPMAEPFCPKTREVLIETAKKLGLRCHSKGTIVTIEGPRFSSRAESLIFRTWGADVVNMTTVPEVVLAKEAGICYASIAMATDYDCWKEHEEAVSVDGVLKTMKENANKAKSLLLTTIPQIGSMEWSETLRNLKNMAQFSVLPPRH
UniProt Q9CQE5: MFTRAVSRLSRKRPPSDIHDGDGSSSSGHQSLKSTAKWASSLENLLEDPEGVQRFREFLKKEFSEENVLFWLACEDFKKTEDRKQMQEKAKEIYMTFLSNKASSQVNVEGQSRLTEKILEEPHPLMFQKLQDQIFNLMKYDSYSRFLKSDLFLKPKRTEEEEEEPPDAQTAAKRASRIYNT
UniProt Q9CQI6: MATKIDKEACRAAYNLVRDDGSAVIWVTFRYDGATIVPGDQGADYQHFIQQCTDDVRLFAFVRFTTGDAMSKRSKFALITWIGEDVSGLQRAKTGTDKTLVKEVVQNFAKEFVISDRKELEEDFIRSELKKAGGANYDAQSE
UniProt Q99NF1: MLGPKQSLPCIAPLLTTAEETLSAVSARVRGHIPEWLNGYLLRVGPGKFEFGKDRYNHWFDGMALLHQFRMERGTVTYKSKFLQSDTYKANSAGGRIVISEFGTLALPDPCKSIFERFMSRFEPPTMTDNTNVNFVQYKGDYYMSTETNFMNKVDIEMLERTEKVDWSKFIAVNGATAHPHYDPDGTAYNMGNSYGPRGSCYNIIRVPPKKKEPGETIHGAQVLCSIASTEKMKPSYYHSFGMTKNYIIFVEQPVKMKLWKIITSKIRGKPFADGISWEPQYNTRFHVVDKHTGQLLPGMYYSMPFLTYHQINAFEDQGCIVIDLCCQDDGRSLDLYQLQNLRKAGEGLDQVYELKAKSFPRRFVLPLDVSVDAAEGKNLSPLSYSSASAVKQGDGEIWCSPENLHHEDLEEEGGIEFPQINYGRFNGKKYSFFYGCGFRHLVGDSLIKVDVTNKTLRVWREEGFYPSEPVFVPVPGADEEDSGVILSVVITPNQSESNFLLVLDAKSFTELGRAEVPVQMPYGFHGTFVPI
UniProt Q99N94, whole entry, looked up: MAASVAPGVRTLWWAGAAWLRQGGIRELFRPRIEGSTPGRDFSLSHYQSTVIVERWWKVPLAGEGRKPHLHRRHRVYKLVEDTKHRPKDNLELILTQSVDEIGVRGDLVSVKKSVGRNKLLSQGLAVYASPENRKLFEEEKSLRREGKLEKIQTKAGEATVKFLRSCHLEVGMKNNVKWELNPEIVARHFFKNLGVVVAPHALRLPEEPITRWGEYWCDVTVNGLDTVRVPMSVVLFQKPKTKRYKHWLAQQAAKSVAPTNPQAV
UniProt Q9CPQ8: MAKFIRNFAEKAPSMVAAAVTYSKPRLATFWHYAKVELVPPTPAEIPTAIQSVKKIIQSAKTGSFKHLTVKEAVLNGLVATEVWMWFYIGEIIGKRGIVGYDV
UniProt Q9CQM9: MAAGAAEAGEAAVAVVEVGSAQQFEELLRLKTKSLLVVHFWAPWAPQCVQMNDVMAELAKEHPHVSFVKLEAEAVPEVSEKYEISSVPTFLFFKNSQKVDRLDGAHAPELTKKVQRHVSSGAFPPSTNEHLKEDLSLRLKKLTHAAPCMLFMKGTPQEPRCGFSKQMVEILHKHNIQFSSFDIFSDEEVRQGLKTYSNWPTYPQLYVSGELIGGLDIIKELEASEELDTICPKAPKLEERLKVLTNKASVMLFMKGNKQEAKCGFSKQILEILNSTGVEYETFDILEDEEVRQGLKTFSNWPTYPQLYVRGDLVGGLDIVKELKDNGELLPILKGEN
UniProt Q9CQ45: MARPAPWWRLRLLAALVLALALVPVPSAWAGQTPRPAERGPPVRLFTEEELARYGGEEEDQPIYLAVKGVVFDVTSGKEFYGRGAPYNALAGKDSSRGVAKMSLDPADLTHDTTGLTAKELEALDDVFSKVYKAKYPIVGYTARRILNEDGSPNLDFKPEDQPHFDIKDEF
UniProt Q99NA2: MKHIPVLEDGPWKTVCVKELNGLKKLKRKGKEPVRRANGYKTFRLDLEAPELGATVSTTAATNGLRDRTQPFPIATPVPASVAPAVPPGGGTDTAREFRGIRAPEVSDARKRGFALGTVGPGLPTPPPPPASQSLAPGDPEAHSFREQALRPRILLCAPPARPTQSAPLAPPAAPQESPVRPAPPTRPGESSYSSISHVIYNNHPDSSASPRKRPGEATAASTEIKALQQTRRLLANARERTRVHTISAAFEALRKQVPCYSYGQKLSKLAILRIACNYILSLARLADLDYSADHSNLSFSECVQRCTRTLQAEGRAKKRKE
UniProt Q9CQN3: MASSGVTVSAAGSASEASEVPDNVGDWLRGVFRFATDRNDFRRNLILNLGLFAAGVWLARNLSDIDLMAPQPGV
UniProt Q9CQ62: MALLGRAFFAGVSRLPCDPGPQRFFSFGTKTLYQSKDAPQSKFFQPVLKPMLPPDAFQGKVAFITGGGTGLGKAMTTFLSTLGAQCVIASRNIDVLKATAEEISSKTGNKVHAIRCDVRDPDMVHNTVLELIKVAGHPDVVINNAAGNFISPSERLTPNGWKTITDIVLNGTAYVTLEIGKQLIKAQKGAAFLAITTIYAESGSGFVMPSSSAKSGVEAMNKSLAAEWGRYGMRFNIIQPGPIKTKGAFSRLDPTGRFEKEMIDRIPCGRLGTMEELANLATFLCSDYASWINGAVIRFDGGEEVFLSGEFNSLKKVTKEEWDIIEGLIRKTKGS
UniProt Q9CQ46: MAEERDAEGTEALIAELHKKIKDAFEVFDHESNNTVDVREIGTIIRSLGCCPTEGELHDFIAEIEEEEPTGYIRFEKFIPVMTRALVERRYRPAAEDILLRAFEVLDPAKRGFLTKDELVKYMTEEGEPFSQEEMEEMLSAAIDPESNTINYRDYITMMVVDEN
UniProt Q9CPV3: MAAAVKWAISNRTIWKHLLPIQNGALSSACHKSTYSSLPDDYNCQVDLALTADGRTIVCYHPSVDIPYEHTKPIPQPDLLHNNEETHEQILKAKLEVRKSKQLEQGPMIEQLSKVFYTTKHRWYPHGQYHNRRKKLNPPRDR
UniProt Q9CR10: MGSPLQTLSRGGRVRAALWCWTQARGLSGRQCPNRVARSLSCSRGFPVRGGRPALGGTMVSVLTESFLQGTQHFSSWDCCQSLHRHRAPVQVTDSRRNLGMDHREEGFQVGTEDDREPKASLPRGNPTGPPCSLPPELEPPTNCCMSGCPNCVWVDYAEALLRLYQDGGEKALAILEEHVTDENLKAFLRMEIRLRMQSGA
UniProt Q9CQR4: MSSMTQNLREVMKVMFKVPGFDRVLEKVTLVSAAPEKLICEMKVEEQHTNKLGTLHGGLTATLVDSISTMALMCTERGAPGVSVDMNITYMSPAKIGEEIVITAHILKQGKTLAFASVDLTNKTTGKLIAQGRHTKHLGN
UniProt Q9CPT3: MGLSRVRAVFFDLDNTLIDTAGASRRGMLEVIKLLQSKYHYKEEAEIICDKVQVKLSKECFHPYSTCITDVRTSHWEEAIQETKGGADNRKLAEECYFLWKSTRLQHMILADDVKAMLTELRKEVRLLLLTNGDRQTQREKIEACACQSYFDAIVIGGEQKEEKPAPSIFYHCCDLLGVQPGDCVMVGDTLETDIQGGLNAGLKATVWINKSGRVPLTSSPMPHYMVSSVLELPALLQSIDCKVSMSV
UniProt Q99LX0: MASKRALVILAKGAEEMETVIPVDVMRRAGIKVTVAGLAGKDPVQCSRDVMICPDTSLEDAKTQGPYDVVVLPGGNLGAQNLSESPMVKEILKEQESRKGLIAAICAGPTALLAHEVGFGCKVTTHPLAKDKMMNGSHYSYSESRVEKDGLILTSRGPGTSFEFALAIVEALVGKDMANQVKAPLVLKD
UniProt Q9CQA3: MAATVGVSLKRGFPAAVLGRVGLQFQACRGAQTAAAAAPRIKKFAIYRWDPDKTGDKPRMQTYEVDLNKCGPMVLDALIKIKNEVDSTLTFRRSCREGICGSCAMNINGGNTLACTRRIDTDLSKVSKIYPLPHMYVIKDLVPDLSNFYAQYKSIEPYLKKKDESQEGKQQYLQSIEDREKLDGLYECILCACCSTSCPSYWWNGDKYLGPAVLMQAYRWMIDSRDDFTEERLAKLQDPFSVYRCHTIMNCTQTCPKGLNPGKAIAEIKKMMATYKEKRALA
UniProt Q9CQT9: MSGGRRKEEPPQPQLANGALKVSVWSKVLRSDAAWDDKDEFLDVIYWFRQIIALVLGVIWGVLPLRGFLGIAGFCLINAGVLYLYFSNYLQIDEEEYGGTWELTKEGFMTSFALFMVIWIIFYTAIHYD
UniProt Q9CR09: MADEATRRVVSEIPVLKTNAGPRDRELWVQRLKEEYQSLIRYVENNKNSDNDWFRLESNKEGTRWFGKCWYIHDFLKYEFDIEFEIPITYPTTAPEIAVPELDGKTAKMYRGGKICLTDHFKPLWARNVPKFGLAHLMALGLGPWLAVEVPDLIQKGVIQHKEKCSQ
UniProt Q99PP7: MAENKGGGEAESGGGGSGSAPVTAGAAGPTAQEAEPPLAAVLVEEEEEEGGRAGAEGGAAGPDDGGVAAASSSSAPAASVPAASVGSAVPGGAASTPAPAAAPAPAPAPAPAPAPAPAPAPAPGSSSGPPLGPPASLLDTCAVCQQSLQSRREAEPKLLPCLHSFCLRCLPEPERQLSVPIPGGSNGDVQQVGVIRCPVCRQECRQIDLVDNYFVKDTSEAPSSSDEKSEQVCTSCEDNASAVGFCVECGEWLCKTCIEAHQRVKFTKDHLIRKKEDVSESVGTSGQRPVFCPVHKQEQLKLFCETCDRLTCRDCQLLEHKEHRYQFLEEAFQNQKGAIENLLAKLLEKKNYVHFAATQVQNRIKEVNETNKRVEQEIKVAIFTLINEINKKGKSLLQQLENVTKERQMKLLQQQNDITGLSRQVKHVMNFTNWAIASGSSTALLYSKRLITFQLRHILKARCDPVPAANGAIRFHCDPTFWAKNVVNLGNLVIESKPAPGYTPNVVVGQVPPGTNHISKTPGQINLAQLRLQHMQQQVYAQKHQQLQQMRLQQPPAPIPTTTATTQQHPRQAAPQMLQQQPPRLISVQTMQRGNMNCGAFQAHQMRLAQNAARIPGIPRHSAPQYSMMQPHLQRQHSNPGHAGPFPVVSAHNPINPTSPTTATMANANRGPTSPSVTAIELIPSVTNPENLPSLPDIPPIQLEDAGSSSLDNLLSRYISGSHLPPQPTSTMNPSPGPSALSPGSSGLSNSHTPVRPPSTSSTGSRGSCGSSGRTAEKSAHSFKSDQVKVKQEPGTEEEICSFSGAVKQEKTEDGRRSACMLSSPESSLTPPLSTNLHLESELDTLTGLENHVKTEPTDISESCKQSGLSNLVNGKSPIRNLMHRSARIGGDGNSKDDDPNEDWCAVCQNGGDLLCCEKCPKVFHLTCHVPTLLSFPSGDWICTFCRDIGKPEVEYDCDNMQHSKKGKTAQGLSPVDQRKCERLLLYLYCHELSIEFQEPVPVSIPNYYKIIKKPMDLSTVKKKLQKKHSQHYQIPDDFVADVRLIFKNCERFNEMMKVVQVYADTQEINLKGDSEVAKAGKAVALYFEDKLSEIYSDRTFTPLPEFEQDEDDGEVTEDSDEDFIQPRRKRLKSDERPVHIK
UniProt Q9CQH3: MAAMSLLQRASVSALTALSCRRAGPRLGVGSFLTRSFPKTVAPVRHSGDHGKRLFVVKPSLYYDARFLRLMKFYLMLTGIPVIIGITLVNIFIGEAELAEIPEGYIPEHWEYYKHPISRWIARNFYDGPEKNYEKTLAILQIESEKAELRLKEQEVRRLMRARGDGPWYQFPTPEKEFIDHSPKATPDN
UniProt Q99LJ8: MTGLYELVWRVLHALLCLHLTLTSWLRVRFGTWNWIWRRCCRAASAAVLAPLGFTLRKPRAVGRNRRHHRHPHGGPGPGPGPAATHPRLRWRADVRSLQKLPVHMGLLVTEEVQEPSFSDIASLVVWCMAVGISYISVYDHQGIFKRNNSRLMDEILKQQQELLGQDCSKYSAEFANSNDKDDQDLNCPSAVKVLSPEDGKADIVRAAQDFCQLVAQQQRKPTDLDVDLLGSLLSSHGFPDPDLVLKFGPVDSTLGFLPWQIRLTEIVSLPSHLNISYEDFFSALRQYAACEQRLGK
UniProt Q9CPW2: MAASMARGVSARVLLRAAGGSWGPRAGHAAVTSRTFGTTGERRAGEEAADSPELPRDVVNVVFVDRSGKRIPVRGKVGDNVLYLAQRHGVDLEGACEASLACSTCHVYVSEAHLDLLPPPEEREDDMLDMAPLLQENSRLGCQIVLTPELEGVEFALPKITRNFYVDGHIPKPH
UniProt Q99NF3: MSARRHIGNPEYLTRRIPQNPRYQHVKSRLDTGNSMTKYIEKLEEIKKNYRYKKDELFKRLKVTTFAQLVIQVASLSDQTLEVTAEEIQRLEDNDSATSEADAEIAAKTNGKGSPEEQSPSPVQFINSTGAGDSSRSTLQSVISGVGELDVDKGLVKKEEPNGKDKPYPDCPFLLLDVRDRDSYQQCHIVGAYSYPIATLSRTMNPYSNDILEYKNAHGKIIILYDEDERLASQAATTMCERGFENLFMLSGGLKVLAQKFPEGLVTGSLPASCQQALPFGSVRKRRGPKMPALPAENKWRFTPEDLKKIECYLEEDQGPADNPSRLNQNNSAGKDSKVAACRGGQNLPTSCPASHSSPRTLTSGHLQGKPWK

compound: CN[C@@H]1C[C@H]2O[C@@](C)([C@@H]1OC)n1c3ccccc3c3c4c(c5c6ccccc6n2c5c31)C(=O)NC4 [staurosporine]; experiment: log2 fold change of tryptic peptide abundance, ligand vs vehicle (limited proteolysis) (log2 ratio); higher = more trypsin-susceptible (destabilized); conditions: ligand concentration: 20 uM; sample: mouse liver crude lysate; replicate design: treated separately

**Q.** With “UniProt Q9CQ65 (peptide sequence: YVDTPFGKPSDALILGK, peptide start residue: 33)” as the target, how does the log2 fold change read?
**A.** Its log2 fold change is -0.855.

**Q.** “UniProt Q9CQE5 (peptide sequence: ASSQVNVEGQSR, peptide start residue: 102)” was tested. Which log2 fold change did it give?
**A.** The log2 fold change was 0.194.

**Q.** With “UniProt Q9CQI6 (peptide sequence: EFVISDRK, peptide start residue: 111)” as the target, how does the log2 fold change read?
**A.** The log2 fold change was 0.0898.

**Q.** “UniProt Q99NF1 (peptide sequence: KKEPGETIHGAQVLCSIASTEK, peptide start residue: 211)” was tested. Which log2 fold change did it give?
**A.** The log2 fold change was 0.288.

**Q.** How did the log2 fold change turn out when “UniProt Q99N94 (peptide sequence: NLGVVVAPHALR, peptide start residue: 193)” was run?
**A.** The log2 fold change was 0.355.

**Q.** For “UniProt Q99MU3 (peptide sequence: NQGFHIGPPLPPPHSR, peptide start residue: 103)”, which log2 fold change is on record?
**A.** Its log2 fold change is -0.494.

**Q.** “UniProt Q9CPQ8 (peptide sequence: APSMVAAAVTYSKPR, peptide start residue: 12)” was tested. Which log2 fold change did it give?
**A.** The log2 fold change was 0.221.

**Q.** How did the log2 fold change turn out when “UniProt Q9CQM9 (peptide sequence: LDGAHAPELTK, peptide start residue: 102)” was run?
**A.** The log2 fold change was -0.22.

**Q.** Which log2 fold change does the source give for “UniProt Q9CQ45 (peptide sequence: MSLDPADLTHDTTGLTAK, peptide start residue: 102)” here?
**A.** The log2 fold change was -0.223.

**Q.** Which log2 fold change does the source give for “UniProt Q99NA2 (peptide sequence: KRPGEATAASTEIK, peptide start residue: 213)” here?
**A.** Its log2 fold change is 0.499.

**Q.** “UniProt Q9CQN3 (peptide sequence: FATDRNDFRR, peptide start residue: 34)” was tested. Which log2 fold change did it give?
**A.** Its log2 fold change is -0.0978.

**Q.** “UniProt Q9CQ62 (peptide sequence: LDPTGRFEK, peptide start residue: 252)” was tested. Which log2 fold change did it give?
**A.** Its log2 fold change is -0.254.

**Q.** For “UniProt Q9CQU0 (peptide sequence: VRPEIINESGNPSYK, peptide start residue: 122)”, which log2 fold change is on record?
**A.** Its log2 fold change is -0.167.

**Q.** With “UniProt Q9CQ46 (peptide sequence: AFEVLDPAKR, peptide start residue: 102)” as the target, how does the log2 fold change read?
**A.** Its log2 fold change is 0.129.

**Q.** With “UniProt Q9CPV3 (peptide sequence: WYPHGQYHNRR, peptide start residue: 123)” as the target, how does the log2 fold change read?
**A.** The log2 fold change was 0.112.

**Q.** “UniProt Q9CR10 (peptide sequence: ALAILEEHVTDENLK, peptide start residue: 172)” was tested. Which log2 fold change did it give?
**A.** The log2 fold change was 0.171.

**Q.** For “UniProt Q9CQR4 (peptide sequence: VLEKVTLVSAAPEK, peptide start residue: 24)”, which log2 fold change is on record?
**A.** The log2 fold change was -0.363.

**Q.** Which log2 fold change does the source give for “UniProt Q9CPT3 (peptide sequence: LLLLTNGDR, peptide start residue: 127)” here?
**A.** The log2 fold change was -0.724.

**Q.** “UniProt Q99LX0 (peptide sequence: DKMMNGSHYSYSESR, peptide start residue: 131)” was tested. Which log2 fold change did it give?
**A.** Its log2 fold change is 0.0774.

**Q.** With “UniProt Q9CQA3 (peptide sequence: KMMATYK, peptide start residue: 270)” as the target, how does the log2 fold change read?
**A.** Its log2 fold change is -0.278.

**Q.** How did the log2 fold change turn out when “UniProt Q9CQT9 (peptide sequence: RKEEPPQPQLANGALK, peptide start residue: 6)” was run?
**A.** The log2 fold change was 0.197.

**Q.** With “UniProt Q9CPT4 (peptide sequence: ESDVPLKSEEFEVTK, peptide start residue: 124)” as the target, how does the log2 fold change read?
**A.** Its log2 fold change is -0.575.

**Q.** “UniProt Q9CR09 (peptide sequence: NSDNDWFR, peptide start residue: 48)” was tested. Which log2 fold change did it give?
**A.** Its log2 fold change is -0.209.

**Q.** For “UniProt Q9CQN7 (peptide sequence: LFQLYPK, peptide start residue: 125)”, which log2 fold change is on record?
**A.** Its log2 fold change is 0.247.

**Q.** “UniProt Q99PP7 (peptide sequence: CDPVPAANGAIR, peptide start residue: 463)” was tested. Which log2 fold change did it give?
**A.** Its log2 fold change is 0.324.

**Q.** For “UniProt Q9CQH3 (peptide sequence: ARGDGPWYQFPTPEKEFIDHSPK, peptide start residue: 162)”, which log2 fold change is on record?
**A.** Its log2 fold change is -0.191.

**Q.** Which log2 fold change does the source give for “UniProt Q99LJ8 (peptide sequence: HPHGGPGPGPGPAATHPR, peptide start residue: 71)” here?
**A.** Its log2 fold change is 0.121.

**Q.** “UniProt Q9CPW2 (peptide sequence: DVVNVVFVDR, peptide start residue: 57)” was tested. Which log2 fold change did it give?
**A.** The log2 fold change was 0.17.

**Q.** With “UniProt Q9CQP3 (peptide sequence: ELDQYGQCVAAKPESWHR, peptide start residue: 15)” as the target, how does the log2 fold change read?
**A.** The log2 fold change was -0.453.

**Q.** How did the log2 fold change turn out when “UniProt Q99NF3 (peptide sequence: HIGNPEYLTR, peptide start residue: 6)” was run?
**A.** The log2 fold change was 0.433.
